# Among all 320,000 compounds or so, about 22,000 (6.9%) were called active. The shares of active, inactive and inconclusive entries below differ from those in the screen. The call rests on the fitted dose curve; in most records, active means well fitted inhibition curve with a large enough effect; inconclusive means small, poorly fitted or top-dose-only effect, or another doubt; inactive means no such curve, though single readings can be large or run the other way. Potencies of inconclusive entries are doubtful fits and often do not repeat.
# Assay: Primary qHTS for delayed death inhibitors of the malarial parasite plastid, 96 hour incubation
# Details: P. falciparum luciferase reporter growth; series mostly up to 28.7 µM; activity change, negative = inhibition: at the top concentration
# How it was run: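 P. falciparum expressing integrated firefly luciferase grown in erythrocytes (2% hematocrit, 0.05% parasitemia final) with compounds for 96 hours at 37 C, 5% CO2. Growth inhibition read as loss of luminescence after adding luciferase detection reagent.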
# On the % scale 0 is the no-effect control and ±100 the full control effect; potency means the concentration at half of the fitted maximal effect.
Structure (SMILES),"activity change, negative = inhibition",Potency
CC(=O)Nc1ccc(S(=O)(=O)N[C@@H](C)C(=O)OCc2cc([N+](=O)[O-])cc3c2OCOC3)cc1,inactive: 21.5%,–
O=C1C(Cl)=C(Nc2cccc(O)c2)C(=O)N1Cc1ccccc1,–,active: 4.65 µM
CCc1ccccc1NC(=O)NC1CCCCC1,–,"inconclusive: 0.415 µM [inhibitor, partial curve, poor fit]"
Cc1ccc(NC(=S)N(CCN2CCOCC2)Cc2cc3cc4c(cc3[nH]c2=O)OCCO4)cc1,–,"inconclusive: 18.5 µM [inhibitor, single point]"
Cc1ccc(CCNS(=O)(=O)c2ccc3c(c2)C(C)(C)C(=O)N3C)cc1,–,"inconclusive: 9.28 µM [inhibitor, partial curve, poor fit]"
O=c1c2ccccc2nc2c3ccccc3ncn12,–,"inconclusive: 14.7 µM [inhibitor, single point]"
COc1cc2[nH]c3c(N4CCN(c5ccc(Cl)cc5)CC4)ncnc3c2cc1OC,–,"inconclusive: 2.08 µM [inhibitor, partial curve, poor fit]"
CS(=O)(=O)Nc1ccccc1C(=O)Nc1ccccc1Cl,–,"inconclusive: 0.928 µM [inhibitor, partial curve, poor fit]"
O=C(CN1C(=O)C2CC=CCC2C1=O)Nc1nc2ccccc2[nH]1 (stereo not given),–,active: 18.5 µM
Cc1cc(C)c(C)c(C(=O)C2OC(=O)C(C)(C)C(=O)C2(C)C)c1C (stereo not given),–,"inconclusive: 18.5 µM [inhibitor, single point]"
COc1ccc(-c2c(C#Cc3ccsc3)c3cc(-c4ccc5[nH]ccc5c4)ccc3n2C)cc1,–,"inconclusive: 3.29 µM [inhibitor, single point]"
COC(CNC(=O)c1cc(Sc2nnc(C)s2)nc2ccccc12)OC,–,"inconclusive: 16.5 µM [inhibitor, single point]"
O=C1CCCC(O)=C1C1C2=C(CCCC2=O)Oc2ccccc21 (stereo not given),–,"inconclusive: 18.5 µM [inhibitor, single point]"
Clc1cccc(N/N=C/c2ccc(N3CCOCC3)s2)c1,–,"inconclusive: 18.5 µM [inhibitor, single point]"
Cc1ccc(C)c(S(=O)(=O)N2CCN(C(=O)Cn3[nH]c(=O)c4ccccc4c3=O)CC2)c1,–,"inconclusive: 9.28 µM [inhibitor, partial curve, poor fit]"
Cc1nn(CC(=O)N2CCCC2)c(=O)c2nn(-c3ccccc3)c(C)c12,–,"inconclusive: 18.5 µM [inhibitor, single point]"
CCCOc1ccc(C(=O)CCN2CCN(C(=O)OCC)CC2)cc1,–,"inconclusive: 14.7 µM [inhibitor, partial curve, poor fit]"
COC(=O)CSc1nc(C)c(C(=O)Nc2ccccc2C)c(-c2ccc(Cl)cc2)c1C#N,–,"inconclusive: 18.5 µM [inhibitor, single point]"
Cc1ccc(N2C(=O)[C@@H]3[C@H](C2=O)[C@H]2C=CC=NN2[C@@H]3C(=O)Nc2ccccc2)cc1,–,"inconclusive: 20.8 µM [inhibitor, partial curve, poor fit]"
C#CCOCCOCCOCCNc1nc(N2CCN(C(=O)CCCCCCCCCCNC(=O)[C@H](CO)n3cc(CCCSC)nn3)CC2)nc(N2CCN(C(=O)CCCCCCCCCCNC(=O)[C@@H]([C@H](C)O)n3cc(C)nn3)CC2)n1,–,active: 0.0928 µM
O=C(O)c1ccc(NC(=O)c2cccc(N3C(=O)C4C5CCC(C5)C4C3=O)c2)cc1 (stereo not given),–,"inconclusive: 18.5 µM [inhibitor, single point]"
Cc1cccc(C)c1NC(=O)CN(C)C(=O)/C=C/c1cccs1,inactive: 8.08%,–

Structure (SMILES),"activity change, negative = inhibition",Potency
O=c1c2ccccc2ncn1-c1ccc([N+](=O)[O-])cc1[N+](=O)[O-],–,"inconclusive: 0.147 µM [inhibitor, partial curve, poor fit]"
O=C1SC(c2ccccc2)=C/C1=C\N1CCCCC1,–,"inconclusive: 0.0147 µM [inhibitor, full curve]"
O=Cc1ccc(OCc2ccc3ccccc3c2)cc1,–,"inconclusive: 18.5 µM [inhibitor, single point]"
CC1(C)Cc2cccc(OCC(=O)N3CCN(c4ccccc4Cl)CC3)c2O1,–,"inconclusive: 14.7 µM [inhibitor, single point]"
CN(C)CCCNC(=O)C(=O)NCC1OCCN1S(=O)(=O)c1cccs1 (stereo not given),–,"inconclusive: 11.7 µM [inhibitor, partial curve, poor fit]"
c1csc(-c2nc3ccccn3c2NC2CCCCC2)c1,inactive: 1.93%,–
O=C(COC(=O)c1cc2ccccc2oc1=O)Nc1cccc(S(=O)(=O)N2CCCCCC2)c1,inactive: 22%,–
O=C(CSc1nnc(-c2ccncc2)n1Cc1ccccc1)NCCc1ccccc1,–,"inconclusive: 7.38 µM [inhibitor, single point]"
COc1ccccc1NC(=O)Nc1nc(CC(=O)Nc2ccc(F)cc2)cs1,–,"inconclusive: 18.5 µM [inhibitor, single point]"
Cc1ccccc1CNC(=O)CN(c1ccccc1Cl)S(C)(=O)=O,–,"inconclusive: 10.4 µM [inhibitor, partial curve]"
CC12CCC(C/C1=N\N=C1\NC(=O)/C(=C\c3ccc(Cl)cc3)S1)C2(C)C (stereo not given),–,"inconclusive: 18.5 µM [inhibitor, single point]"
Cc1c(Cl)cccc1NC(=S)N1CCCN(Cc2ccc(F)cc2)C1,–,"inconclusive: 18.5 µM [inhibitor, single point]"
CCn1c(=O)cc(SCC(=O)NCc2ccco2)c2ccccc21,–,"inconclusive: 11.7 µM [inhibitor, single point]"
O=C(Cn1cc[n+](Cc2ccccc2)c1)c1ccc([N+](=O)[O-])cc1,inactive: -9.53%,–
Nc1[nH]ncc1-c1ccc(Cl)cc1,–,"inconclusive: 2.08 µM [inhibitor, single point]"
COc1ccc(CNC(=O)C2CCN(S(=O)(=O)c3cccc4nonc34)CC2)cc1,inactive: -15.9%,–
COc1cc(CNCCc2ccc(S(N)(=O)=O)cc2)ccc1OCc1ccc(Cl)cc1,–,active: 6.57 µM
Cc1ccc(S(=O)(=O)N(CC(=O)Nc2cccc([N+](=O)[O-])c2)C2CCCCC2)cc1,–,"inconclusive: 11.7 µM [inhibitor, single point]"
O=C(NCCN1CCOCC1)C1CC(=O)N(c2cccc(C(F)(F)F)c2)C1 (stereo not given),inactive: 24%,–
O=[N+]([O-])c1ccc(-c2nn(-c3ccccc3)cc2/C=N/n2c(-c3cccs3)n[nH]c2=S)cc1,–,"inconclusive: 10.4 µM [inhibitor, single point]"
Cc1ccccc1OCc1nc(-c2ccc(-n3cccc3)cc2)no1,–,"inconclusive: 14.7 µM [inhibitor, single point]"
COc1cc2c3nnc(-c4ccc(F)cc4)c-3cn(Cc3ccccc3F)c2cc1OC,–,active: 0.738 µM

# Three entries already listed, arranged by number of heavy atoms, descending.
Structure (SMILES),"activity change, negative = inhibition",Potency
O=C(CSc1nnc(-c2ccncc2)n1Cc1ccccc1)NCCc1ccccc1,–,"inconclusive: 7.38 µM [inhibitor, single point]"
COc1ccc(CNC(=O)C2CCN(S(=O)(=O)c3cccc4nonc34)CC2)cc1,inactive: -15.9%,–
CCn1c(=O)cc(SCC(=O)NCc2ccco2)c2ccccc21,–,"inconclusive: 11.7 µM [inhibitor, single point]"

# Remaining list, next part

Structure (SMILES),"activity change, negative = inhibition",Potency
CC(C)(C)NC(=O)C(c1ccncc1)N(C(=O)C1CSC(=O)C1)c1ccccc1 (stereo not given),inactive: -2.62%,–
CC1CCCCN1CCCOC(=O)c1ccccc1 (stereo not given),inactive: -4.43%,–
Cc1ccc(C2NC(=O)c3c(sc4c3CCN(C)C4)N2)o1 (stereo not given),–,active: 3.7 µM
Cc1ccc(C23CC4CC(CC(CC(=O)N5CCOCC5)(C4)C2)C3)cc1,–,"inconclusive: 0.0928 µM [inhibitor, full curve, poor fit]"
COC(=O)c1c[nH]n2c(=O)cc(CCl)nc12,–,"inconclusive: 0.415 µM [inhibitor, full curve]"
CCC(CC)NC(=O)c1ccc(NS(=O)(=O)c2ccc3[nH]c(=O)[nH]c3c2)cc1,inactive: -14.4%,–
Cc1nnc(N(C)C(=O)c2ccc3c(c2)OCO3)s1,inactive: 65.4%,–
COc1ccc(S(=O)(=O)N2CCOCC2)cc1NC(=O)COC(=O)c1oc2ccccc2c1C,inactive: -8.49%,–
COc1ccc(CCNC(=O)CSc2nc(N)c3c(C)c(C)oc3n2)cc1OC,–,"inconclusive: 7.38 µM [inhibitor, partial curve, poor fit]"
O=C(CCC1CCN(Cc2ccccc2Cl)CC1)NC1CC1,–,"inconclusive: 10.4 µM [inhibitor, partial curve]"
CCCc1cnc(N2CCN(S(=O)(=O)c3cccs3)CC2)nc1,–,"inconclusive: 8.28 µM [inhibitor, partial curve, poor fit]"
Cc1nnc(CN(C)C(=O)c2cc(COc3ccc(F)cc3Cl)on2)o1,inactive: 32%,–
Cc1ccc(CNC(=O)CNC(=S)N(Cc2ccccc2)Cc2cccnc2)cc1,–,"inconclusive: 18.5 µM [inhibitor, single point]"
CCOC(=O)C1=C(Nc2ccccc2)CC(C)(O)C(C(=O)OCC)C1c1ccccc1 (stereo not given),–,"inconclusive: 18.5 µM [inhibitor, partial curve, poor fit]"
OC(CNCc1ccccc1Cl)COc1ccc(F)cc1 (stereo not given),–,"inconclusive: 9.28 µM [inhibitor, partial curve, poor fit]"
CC1CCCCC1NC(=O)CCc1nc2sc3c(c2c(=O)[nH]1)CCCC3 (stereo not given),inactive: -17.6%,–
O=C(N1CCCCC1)N1CCN(S(=O)(=O)c2cccc([N+](=O)[O-])c2)CC1,–,"inconclusive: 18.5 µM [inhibitor, single point]"
CC1CCN(CC(O)COC2CC(C)CCC2C(C)C)CC1 (stereo not given),–,"inconclusive: 10.4 µM [inhibitor, partial curve]"
CNC(=O)/C(C#N)=C/c1c(N2CCN(c3ccccc3)CC2)nc2c(C)cccn2c1=O,–,"inconclusive: 13.1 µM [inhibitor, partial curve]"
CCN(CC)Cc1oc(-c2ccccc2)cc1C(=O)O,–,"inconclusive: 14.7 µM [inhibitor, partial curve, poor fit]"
COc1ccc(OCC(=O)Nc2ccc3c(c2)C(=O)NC3=O)cc1,–,active: 11.7 µM

# — PubChem BioAssay AID504834 (National Center for Advancing Translational Sciences (NCATS), 2011)
